Taken from: PubChem BioAssay AID1508597 (Cure First, 2020)
Shown is an unselected part of about 2,100 deposited reagents. 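Calls flag viability under 80% in either arm, not effects specific to rucaparib; the reference for percent is not stated.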 A reagent listed more than once was tested more than once; the source does not tell the runs apart. The record does not give: the 100% reference.

Assay: 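Knock-downs altering ovarian cancer cell survival with or without PARP inhibitor rucaparib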 (primary screen)
Cell system: human ovarian carcinoma lines grown from tumours: OCI-P5x (papillary serous) and OCI-C5x (clear cell)
Knock-down reagent: siRNA pool against human genes, 1.25 pmol siRNA per well
Time to read-out: 72 h or 96 h, depending on the cell culture
Challenge: rucaparib 20 µM (about IC30) or vehicle, present until read-out
Measurement: 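Luminescent ATP-based viability assay read 72 or 96 h after transfection, depending on culture, given as normalised percent viability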
Direction: viability, normalised: higher = more viable cells remaining
Rule for the call: 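Active when normalised viability falls below 80 percent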
Calls: active = viability under 80%; inactive = viability 80% or more

no.	gene knocked down	rucaparib or vehicle	cell line	technical replicate	viability, normalised (%)	outcome
1	RPS6KA3	Rucaparib	OCI-C5x (clear cell)	1	91.2	inactive
2	RPS6KA3	Rucaparib	OCI-C5x (clear cell)	2	77.7	active
3	RPS6KA3	Rucaparib	OCI-C5x (clear cell)	3	84.3	inactive
4	RPS6KA3	Rucaparib	OCI-P5x (serous)	1	134	inactive
5	RPS6KA3	Rucaparib	OCI-P5x (serous)	2	117	inactive
6	RPS6KA3	Rucaparib	OCI-P5x (serous)	3	127	inactive
7	RPS6KA3	Vehicle	OCI-C5x (clear cell)	1	117	inactive
8	RPS6KA3	Vehicle	OCI-C5x (clear cell)	2	100	inactive
9	RPS6KA3	Vehicle	OCI-C5x (clear cell)	3	88.1	inactive
10	RPS6KA3	Vehicle	OCI-P5x (serous)	1	89.6	inactive
11	RPS6KA3	Vehicle	OCI-P5x (serous)	2	98.7	inactive
12	RPS6KA3	Vehicle	OCI-P5x (serous)	3	112	inactive
13	RNF168	Rucaparib	OCI-C5x (clear cell)	1	51.8	active
14	RNF168	Rucaparib	OCI-C5x (clear cell)	1	51.2	active
15	RNF168	Rucaparib	OCI-C5x (clear cell)	2	38	active
16	RNF168	Rucaparib	OCI-C5x (clear cell)	2	51.4	active
17	RNF168	Rucaparib	OCI-C5x (clear cell)	3	36.8	active
18	RNF168	Rucaparib	OCI-C5x (clear cell)	3	37.5	active
19	RNF168	Rucaparib	OCI-P5x (serous)	1	40.2	active
20	RNF168	Rucaparib	OCI-P5x (serous)	1	60.4	active
21	RNF168	Rucaparib	OCI-P5x (serous)	2	40.5	active
22	RNF168	Rucaparib	OCI-P5x (serous)	2	82.3	inactive
23	RNF168	Rucaparib	OCI-P5x (serous)	3	47	active
24	RNF168	Rucaparib	OCI-P5x (serous)	3	48.1	active
25	RNF168	Vehicle	OCI-C5x (clear cell)	1	39.4	active
26	RNF168	Vehicle	OCI-C5x (clear cell)	1	38.1	active
27	RNF168	Vehicle	OCI-C5x (clear cell)	2	42.3	active
28	RNF168	Vehicle	OCI-C5x (clear cell)	2	42.2	active
29	RNF168	Vehicle	OCI-C5x (clear cell)	3	48.6	active
30	RNF168	Vehicle	OCI-C5x (clear cell)	3	37.5	active
31	RNF168	Vehicle	OCI-P5x (serous)	1	52.1	active
32	RNF168	Vehicle	OCI-P5x (serous)	1	81.2	inactive
33	RNF168	Vehicle	OCI-P5x (serous)	2	70.8	active
34	RNF168	Vehicle	OCI-P5x (serous)	2	64	active
35	RNF168	Vehicle	OCI-P5x (serous)	3	75	active
36	RNF168	Vehicle	OCI-P5x (serous)	3	64	active
37	AAK1	Rucaparib	OCI-C5x (clear cell)	1	48.1	active
38	AAK1	Rucaparib	OCI-C5x (clear cell)	2	41.4	active
39	AAK1	Rucaparib	OCI-C5x (clear cell)	3	49.5	active
40	AAK1	Rucaparib	OCI-P5x (serous)	1	75.3	active
41	AAK1	Rucaparib	OCI-P5x (serous)	2	68.6	active
42	AAK1	Rucaparib	OCI-P5x (serous)	3	57.9	active
43	AAK1	Vehicle	OCI-C5x (clear cell)	1	44.5	active
44	AAK1	Vehicle	OCI-C5x (clear cell)	2	44.8	active
45	AAK1	Vehicle	OCI-C5x (clear cell)	3	57.7	active
46	AAK1	Vehicle	OCI-P5x (serous)	1	66.8	active
47	AAK1	Vehicle	OCI-P5x (serous)	2	70.3	active
48	AAK1	Vehicle	OCI-P5x (serous)	3	58.2	active

3 entries already listed, arranged by “viability, normalised (%)”, lowest first.
gene knocked down	rucaparib or vehicle	cell line	technical replicate	viability, normalised (%)	outcome
RPS6KA3	Vehicle	OCI-P5x (serous)	1	89.6	inactive
RPS6KA3	Vehicle	OCI-P5x (serous)	2	98.7	inactive
RPS6KA3	Vehicle	OCI-P5x (serous)	3	112	inactive

Continued:
no.	gene knocked down	rucaparib or vehicle	cell line	technical replicate	viability, normalised (%)	outcome
49	CLK2	Rucaparib	OCI-C5x (clear cell)	1	58.1	active
50	CLK2	Rucaparib	OCI-C5x (clear cell)	1	58.4	active
51	CLK2	Rucaparib	OCI-C5x (clear cell)	2	49.3	active
52	CLK2	Rucaparib	OCI-C5x (clear cell)	2	53.4	active
53	CLK2	Rucaparib	OCI-C5x (clear cell)	3	61.8	active
54	CLK2	Rucaparib	OCI-C5x (clear cell)	3	66.7	active
55	CLK2	Rucaparib	OCI-P5x (serous)	1	103	inactive
56	CLK2	Rucaparib	OCI-P5x (serous)	1	95.9	inactive
57	CLK2	Rucaparib	OCI-P5x (serous)	2	117	inactive
58	CLK2	Rucaparib	OCI-P5x (serous)	2	104	inactive
59	CLK2	Rucaparib	OCI-P5x (serous)	3	78.6	active
60	CLK2	Rucaparib	OCI-P5x (serous)	3	87.4	inactive
61	CLK2	Vehicle	OCI-C5x (clear cell)	1	95.5	inactive
62	CLK2	Vehicle	OCI-C5x (clear cell)	1	58.1	active
63	CLK2	Vehicle	OCI-C5x (clear cell)	2	98.9	inactive
64	CLK2	Vehicle	OCI-C5x (clear cell)	2	66.3	active
65	CLK2	Vehicle	OCI-C5x (clear cell)	3	74	active
66	CLK2	Vehicle	OCI-C5x (clear cell)	3	59.2	active
67	CLK2	Vehicle	OCI-P5x (serous)	1	84.3	inactive
68	CLK2	Vehicle	OCI-P5x (serous)	1	86.3	inactive
69	CLK2	Vehicle	OCI-P5x (serous)	2	44.1	active
70	CLK2	Vehicle	OCI-P5x (serous)	2	79	active
71	CLK2	Vehicle	OCI-P5x (serous)	3	79.7	active
72	CLK2	Vehicle	OCI-P5x (serous)	3	83.9	inactive
